{"source": "PubChem BioAssay AID1224828 (NIAID, 2016)", "purpose": "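Regulators linking TLR4 signalling to p65 nuclear translocation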 (primary screen)", "cell system": "mouse RAW264.7 G9 macrophage reporter cells (GFP-p65, Tnf promoter-mCherry)", "knock-down reagent": "siRNA pool against mouse genes, 100 nM", "timing": "2 days siRNA transfection, then 40 min LPS before fixation", "treatment": "LPS (Salmonella minnesota R595) at 10 ng/ml", "read-out": "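Imaged p65 nuclear translocation ratio, normalised to the plate median, converted to robust z-scores and averaged across two replicates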", "scale": "p65 translocation robust z-score: higher = more nuclear NF-kappaB p65 after LPS than the plate median; nuclear/cytoplasmic p65 ratio: higher = more nuclear NF-kappaB p65", "active means": "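Active if robust z is above 3.3 (negative regulators) or below -1.56, the Tlr4 control median (positive regulators); activity score 50 or more; control wells not called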", "meaning of the calls": "active = hit (p65 shift raised or lowered); inactive = no clear change", "note": "Here is an unselected part of about 17,000 reagents. Of all reagents, 762 (4.5%) got an active call. 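Active calls include both raised and lowered p65 entry, mostly lowered; wells with fewer than 50 cells lack a z-score.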 Raw values vary from plate to plate and are shown uncorrected. Entries without a mark were called inactive."}
{"gene": "Yju2", "nuclear/cytoplasmic p65 ratio, rep 1": 1.36, "nuclear/cytoplasmic p65 ratio, rep 2": 1.45, "low cell count flag": "fewer than 50 cells per well; well left out of scoring"}
{"gene": "Armc5", "p65 translocation robust z-score": -0.57, "nuclear/cytoplasmic p65 ratio, rep 1": 1.37, "nuclear/cytoplasmic p65 ratio, rep 2": 1.88, "low cell count flag": "enough cells to score"}
{"gene": "4933409G03Rik", "nuclear/cytoplasmic p65 ratio, rep 1": 1.35, "nuclear/cytoplasmic p65 ratio, rep 2": 1.57, "low cell count flag": "fewer than 50 cells per well; well left out of scoring"}
{"gene": "Timm9", "p65 translocation robust z-score": -0.11, "nuclear/cytoplasmic p65 ratio, rep 1": 1.35, "nuclear/cytoplasmic p65 ratio, rep 2": 1.19, "low cell count flag": "enough cells to score"}
{"gene": "Ttc16", "p65 translocation robust z-score": 1.08, "nuclear/cytoplasmic p65 ratio, rep 1": 1.4, "nuclear/cytoplasmic p65 ratio, rep 2": 1.56, "low cell count flag": "enough cells to score"}
{"gene": "Psme3ip1", "p65 translocation robust z-score": 0.1, "nuclear/cytoplasmic p65 ratio, rep 1": 1.41, "nuclear/cytoplasmic p65 ratio, rep 2": 1.29, "low cell count flag": "enough cells to score"}
{"gene": "Chmp1b", "p65 translocation robust z-score": -0.12, "nuclear/cytoplasmic p65 ratio, rep 1": 1.38, "nuclear/cytoplasmic p65 ratio, rep 2": 1.36, "low cell count flag": "enough cells to score"}
{"gene": "Ido1", "p65 translocation robust z-score": "-2.19 (active)", "nuclear/cytoplasmic p65 ratio, rep 1": 1.24, "nuclear/cytoplasmic p65 ratio, rep 2": 1.13, "low cell count flag": "enough cells to score"}
{"gene": "Srms", "nuclear/cytoplasmic p65 ratio, rep 1": 2.22, "nuclear/cytoplasmic p65 ratio, rep 2": 1.54, "low cell count flag": "fewer than 50 cells per well; well left out of scoring"}
{"gene": "Atp6v1d", "p65 translocation robust z-score": -0.54, "nuclear/cytoplasmic p65 ratio, rep 1": 1.58, "nuclear/cytoplasmic p65 ratio, rep 2": 1.49, "low cell count flag": "enough cells to score"}
{"gene": "Cryga", "p65 translocation robust z-score": 0.07, "nuclear/cytoplasmic p65 ratio, rep 1": 1.47, "nuclear/cytoplasmic p65 ratio, rep 2": 1.4, "low cell count flag": "enough cells to score"}
{"gene": "Cd276", "nuclear/cytoplasmic p65 ratio, rep 1": 1.13, "nuclear/cytoplasmic p65 ratio, rep 2": 0.944, "low cell count flag": "fewer than 50 cells per well; well left out of scoring"}
{"gene": "Cacng4", "p65 translocation robust z-score": -0.37, "nuclear/cytoplasmic p65 ratio, rep 1": 1.54, "nuclear/cytoplasmic p65 ratio, rep 2": 1.66, "low cell count flag": "enough cells to score"}
{"gene": "Plk4", "p65 translocation robust z-score": 0.23, "nuclear/cytoplasmic p65 ratio, rep 1": 1.72, "nuclear/cytoplasmic p65 ratio, rep 2": 1.62, "low cell count flag": "enough cells to score"}
{"gene": "Or6n1", "p65 translocation robust z-score": 1.35, "nuclear/cytoplasmic p65 ratio, rep 1": 1.63, "nuclear/cytoplasmic p65 ratio, rep 2": 1.43, "low cell count flag": "enough cells to score"}

Copied from the listing (3 entries):
{"gene": "Ttc16", "p65 translocation robust z-score": 1.08, "nuclear/cytoplasmic p65 ratio, rep 1": 1.4, "nuclear/cytoplasmic p65 ratio, rep 2": 1.56, "low cell count flag": "enough cells to score"}
{"gene": "Psme3ip1", "p65 translocation robust z-score": 0.1, "nuclear/cytoplasmic p65 ratio, rep 1": 1.41, "nuclear/cytoplasmic p65 ratio, rep 2": 1.29, "low cell count flag": "enough cells to score"}
{"gene": "Chmp1b", "p65 translocation robust z-score": -0.12, "nuclear/cytoplasmic p65 ratio, rep 1": 1.38, "nuclear/cytoplasmic p65 ratio, rep 2": 1.36, "low cell count flag": "enough cells to score"}

Next reagents follow.
{"gene": "Rigi", "p65 translocation robust z-score": 1.37, "nuclear/cytoplasmic p65 ratio, rep 1": 1.73, "nuclear/cytoplasmic p65 ratio, rep 2": 1.78, "low cell count flag": "enough cells to score"}
{"gene": "Cdh10", "p65 translocation robust z-score": 0.93, "nuclear/cytoplasmic p65 ratio, rep 1": 1.77, "nuclear/cytoplasmic p65 ratio, rep 2": 1.73, "low cell count flag": "enough cells to score"}
{"gene": "Eno4", "p65 translocation robust z-score": 2.77, "nuclear/cytoplasmic p65 ratio, rep 1": 1.52, "nuclear/cytoplasmic p65 ratio, rep 2": 2.04, "low cell count flag": "enough cells to score"}
{"gene": "Bzw2", "p65 translocation robust z-score": "3.7 (active)", "nuclear/cytoplasmic p65 ratio, rep 1": 1.98, "nuclear/cytoplasmic p65 ratio, rep 2": 1.99, "low cell count flag": "enough cells to score"}
{"gene": "Krtap31-1", "nuclear/cytoplasmic p65 ratio, rep 1": 1.12, "nuclear/cytoplasmic p65 ratio, rep 2": 0, "low cell count flag": "fewer than 50 cells per well; well left out of scoring"}
{"gene": "Sh3yl1", "p65 translocation robust z-score": -0.48, "nuclear/cytoplasmic p65 ratio, rep 1": 1.38, "nuclear/cytoplasmic p65 ratio, rep 2": 1.2, "low cell count flag": "enough cells to score"}
{"gene": "Spock3", "p65 translocation robust z-score": 1.8, "nuclear/cytoplasmic p65 ratio, rep 1": 1.72, "nuclear/cytoplasmic p65 ratio, rep 2": 1.38, "low cell count flag": "enough cells to score"}
{"gene": "U2surp", "p65 translocation robust z-score": -0.81, "nuclear/cytoplasmic p65 ratio, rep 1": 1.33, "nuclear/cytoplasmic p65 ratio, rep 2": 1.35, "low cell count flag": "enough cells to score"}
{"gene": "Fkbp6", "p65 translocation robust z-score": 0.5, "nuclear/cytoplasmic p65 ratio, rep 1": 1.45, "nuclear/cytoplasmic p65 ratio, rep 2": 1.49, "low cell count flag": "enough cells to score"}
{"gene": "Mdga2", "p65 translocation robust z-score": 1.85, "nuclear/cytoplasmic p65 ratio, rep 1": 2.21, "nuclear/cytoplasmic p65 ratio, rep 2": 1.64, "low cell count flag": "enough cells to score"}
{"gene": "H1f0", "p65 translocation robust z-score": -0.77, "nuclear/cytoplasmic p65 ratio, rep 1": 1.28, "nuclear/cytoplasmic p65 ratio, rep 2": 1.32, "low cell count flag": "enough cells to score"}
{"gene": "Plce1", "p65 translocation robust z-score": 1.11, "nuclear/cytoplasmic p65 ratio, rep 1": 1.53, "nuclear/cytoplasmic p65 ratio, rep 2": 1.33, "low cell count flag": "enough cells to score"}
